Test: general procedure: solution-phase peptide synthesis; perfluorophenyl ester, DIPEA
Conditions: for conjugation yield: conjugation step

(S,S,R,R,2S,2′S,4R,4′R)-5,5′-((((7S,15R,16S,24S)-15,16-bis(3-(2,5-dioxo-2,5-dihydro-1H-pyrrol-1-yl)propanamido)-6,9,14,17,22,25-hexaoxo-7,24-bis(30-oxo-2,5,9,12,15,18,21,24,27-nonaoxa-31-azapentatriacontan-35-yl)-5,8,13,18,23,26-hexaazatriacontane-1,30-dioyl)bis(azanediyl))bis(4-hydroxy-3,1-phenylene))bis(4-(2-((6S,9R,11R)-6-((S)-sec-butyl)-9-isopropyl-2,3,3,8-tetramethyl-4,7,13-trioxo-12-oxa-2,5,8-triazatetradecan-11-yl)thiazole-4-carboxamido)-2-methylpentanoic acid)
step yield (coupling step): 48% yield

(4R)-4-(2-((1R,3R)-1-acetoxy-3-((2S,3S)—N,3-dimethyl-2-((R)-1-methyl-piperidine-2-carboxamido)pentanamido)-4-methylpentyl)thiazole-4-carboxamido)-5-(3-(3-(2-(2-aminoethoxy)ethoxy)propanamido)-4-hydroxyphenyl)-2-methylpentanoic Acid
step yield (late stage modification step): 79%

(S)-2-((2R,3R)-3-((S)-1-((6S,9S,12S,13R)-12-((S)-sec-butyl)-6,9-diisopropyl-13-methoxy-2,2,5,11-tetramethyl-4,7,10-trioxo-3-oxa-5,8,11-triazapenta-decan-15-oyl)pyrrolidin-2-yl)-3-methoxy-2-methylpropanamido)-3-phenylpropanoic Acid
step yield (late stage modification step): 85%

(S)-methyl 2-((2R,3R)-3-((S)-1-((6S,9S,12S,13R)-12-((S)-sec-butyl)-6,9-diisopropyl-13-methoxy-2,2,5,11-tetramethyl-4,7,10-trioxo-3-oxa-5,8,11-triazapentadecan-15-oyl)pyrrolidin-2-yl)-3-methoxy-2-methylpropanamido)-3-phenylpropanoate
step yield (coupling step): 39%

(2R,3R)-methyl 3-((S)-1-((3R,4S,5S)-4-((S)-2-(2-(dimethylamino)-2-methylpropanamido)-N,3-dimethylbutanamido)-3-methoxy-5-methylheptanoyl)pyrrolidin-2-yl)-3-methoxy-2-methylpropanoate
step yield (coupling step): 100% yield

(4R)-4-(2-((3S,6S,9R,11R)-6-((S)-sec-butyl)-3,9-diisopropyl-8-methyl-4,7,13-trioxo-12-oxa-2,5,8-triazatetradecan-11-yl)thiazole-4-carboxamido)-2-methyl-5-phenylpentanoic Acid Hydrochloride Salt
step yield (late stage modification step, hydrochloride salt): 103%

(4R)-4-(2-((1R,3R)-1-acetoxy-3-((2S,3S)—N,3-dimethyl-2-((R)-1-methylpiperidine-2-carboxamido)pentanamido)-4-methylpentyl)thiazole-4-carboxamido)-5-(3-(3-(2-(2-azidoethoxy)ethoxy)propanamido)-4-hydroxyphenyl)-2-methylpentanoic acid
conjugation yield: 82%

(2S)-2-((2R,3R)-3-((2S)-1-((11S,14S,17S)-1-amino-17-((R)-sec-butyl)-11,14-diisopropyl-18-methoxy-10,16-dimethyl-9,12,15-trioxo-3,6-dioxa-10,13,16-triazaicosan-20-oyl)pyrrolidin-2-yl)-3-methoxy-2-methylpropanamido)-3-phenylpropanoic Acid
step yield (late stage modification step): 92%

(S)-methyl 2-((2R,3R)-3-((S)-1-((3R,4S,5S)-4-((S)-2-((S)-2-((S)-2-amino-N-methylpropanamido)-3-methylbutanamido)-N,3-dimethylbutanamido)-3-methoxy-5-methylheptanoyl)pyrrolidin-2-yl)-3-methoxy-2-methylpropanamido)-3-phenylpropanoate
step yield (late stage modification step): 96%

(S)-2-((2R,3R)-3-((S)-1-((3R,4S,5S)-4-((S)—N,3-dimethyl-2-((S)-3-methyl-2-(methylamino)butanamido)butanamido)-3-methoxy-5-methylheptanoyl)-pyrrolidin-2-yl)-3-methoxy-2-methylpropanamido)-3-phenylpropanoic Acid
step yield (late stage modification step, run 1): ˜100% | step yield (late stage modification step, run 2): 90%

(2S)-2-((2R,3R)-3-((2S)-1-((11S,14S,17S)-1-azido-17-((R)-sec-butyl)-11,14-diisopropyl-18-methoxy-10,16-dimethyl-9,12,15-trioxo-3,6-dioxa-10,13,16-triazaicosan-20-oyl)pyrrolidin-2-yl)-3-methoxy-2-methylpropanamido)-3-phenylpropanoic Acid
conjugation yield: 82%

Source: US20230010108 (published 2023)
